Measurements published in patent US20040043442A1, “Use of betaine in functional products having blood pressure lowering effects” (Finnfeeds Finland Oy, priority 2001, published 2004).

Experiments:
[1] = Body weight and BMI in the intervention study; assay type: in vivo, human
Description: (§1) The effects of betaine supplementation on blood pressure, and in addition on body weight, body composition, resting energy expenditure, and concentrations of serum total and lipoprotein lipids and plasma homocysteine in humans, were studied. The participants were healthy, obese adults with normal blood pressure.
(§2) Forty-two subjects (14 males, 28 females) without any chronic disease and with normal liver, kidney and thyroid function participated in the study. The inclusion criteria for body mass index (BMI) was 28-40 kg/m^2 and for age 25-60 years. Serum concentration of total triglycerides had to be <3.5 mmol/l and that of total cholesterol <7.5 mmol/l. Inclusion criteria for fasting concentration of plasma glucose was <6.7 mmol/l. Subjects with lipid lowering medication were excluded as well women with perimenopause. Four women were postmenopausal in the control group and 6 were postmenopausal in the betaine group. None of the participants were on a medication for hypertension.
The study was a controlled, randomized double-blinded parallel study. […] Grapefruit juice was added to simulate the bitter taste of betaine. The subjects were on their regular eucaloric diet during this period. For the intervention period with a hypocaloric (−2100 kJ or −500 kcal) diet the subjects were randomly assigned in two groups (20 for the control group, 22 for the betaine group). The subjects were matched for BMI, gender and menstrual cycle.
The control group consumed orange juice 1 dl twice a day and the betaine group consumed betaine enriched orange juice 1 dl twice a day. The amount of betaine was 3 g per 1 dl orange juice, giving a daily betaine dose of 6 g.
Body weight was measured using the same calibrated electronic scale throughout the study. Body composition was measured by a bioelectric impedance (BIA 101S with Bodygram software, Akern S.r.I. Biosearch, Italy).

folate = test: Folate concentration of plasma and erythrocytes (fluorescence polarization immunometric Imx-method); assay type: in vivo, human; conditions: betaine group
Description: as §1, §2
The study was a controlled, randomized double-blinded parallel study. […] Grapefruit juice was added to simulate the bitter taste of betaine. The subjects were on their regular eucaloric diet during this period. […]
Folate concentration of plasma and erythrocytes was determined by the fluorescence polarization immunometric Imx-method (Abbott Laboratories, IL).

C[N+](C)(C)CC(=O)[O-] [Betaine, trimethylglycine]
Body weight ([1]; 4 wk (beginning of intervention period), betaine group): 95.7 ± 11.3 kg | Change in BMI in the intervention period ([1]; 12-week intervention, betaine 6 g daily, P=0.230 vs control group): −0.7 ± 1.1 kg/m^2 | Change in body weight in the intervention period ([1]; 12-week intervention, betaine 6 g daily, P=0.303 vs control group): -2.2 ± 3.2 kg | Body weight ([1]; 16 wk (end of intervention period), betaine 6 g daily, hypocaloric diet, P=0.004 vs 4 wk): 93.5 ± 11.1 kg | Changes in body weight and BMI compared between the groups (result in words) ([1]; betaine group vs control group, intervention period): no significant differences were found | Folate concentration in erythrocytes (result in words) (folate; P=0.024): decreased significantly | Fasting plasma folate concentration (result in words) (folate; during the study): did not change
